{
  "source": "PubChem BioAssay AID493014",
  "about": "(National Center for Advancing Translational Sciences (NCATS), 2011)",
  "note": "The campaign covered roughly 340,000 compounds. About 170 (0.05%) were called active. The shares of active, inactive and inconclusive entries below differ from those in the screen. Calls come from the whole dose curve; as a rule, active = well fitted inhibition curve with a large enough effect in the signal ratio, with a control signal flat (not every such curve was filed as active); inconclusive = small, poorly fitted or top-dose-only effect, or effect the other way, or a change in a side signal; inactive = flat fitted curve, though single readings scatter; the % refers to the signal ratio. Potencies beside an inconclusive call are fits to weak or partial responses and may not hold up. Potency is the fitted concentration of half-maximal effect.",
  "data": [
    {"experiment": "qHTS Assay to Find Inhibitors of Chronic Active B-Cell Receptor Signaling;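 for activity change, negative = inhibition: plate controls were basal doxycycline-induced cells for no effect and cells given 10 µM MG132 for full effect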", "details": "ABC-DLBCL IkBa-CBG/CBR reporter, luminescence ratio (green luciferase fused to IkBa over red control in TMD8 lymphoma cells), 4 h; activity change, negative = inhibition: at 46.1 µM (top of the series)", "outline": "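TMD8 ABC-DLBCL cells carrying doxycycline-inducible green luciferase fused to IkappaBalpha plus unfused red luciferase were exposed to compounds (up to 46 uM) for 4 hrs at 37C. Activity came from the overlap-corrected green/red luminescence ratio.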", "values": [
      {"smiles": "O=[N+]([O-])c1ccc2c(c1N1CCCCC1)=NC1(CCCCC1)[N+]=2[O-]", "Potency": "inconclusive: 15.8 µM [rising, partial curve, poor fit]"},
      {"smiles": "COc1ccc(-c2nn(-c3ccccc3)cc2C#N)cc1", "Potency": "inconclusive: 0.366 µM [rising, full curve]"},
      {"smiles": "Cc1cc(C)cc(Nc2ccc(C(=O)O)cc2N)c1", "Potency": "inconclusive: 1.84 µM [falling, partial curve, poor fit]"},
      {"smiles": "Cc1ccc2[nH]c3c(=O)n(CCC4=CCCCC4)cnc3c2c1", "activity change, negative = inhibition": "inactive: 6.67%"},
      {"smiles": "O=C(c1ccc(S(=O)(=O)NCc2ccco2)cc1)N1CCN(c2ccccc2)CC1", "activity change, negative = inhibition": "inactive: 0.277%"},
      {"smiles": "CC(C)(C)C(=O)Nc1c(Br)c(C2CC2)nn1-c1ccccc1", "activity change, negative = inhibition": "inconclusive: 18.1%"},
      {"smiles": "CCC(C)(C)C(=O)Nc1ncc(S(=O)(=O)c2ccc([N+](=O)[O-])cc2)s1", "activity change, negative = inhibition": "inconclusive: 0.215%"},
      {"smiles": "CCc1ccc(CN(C)C(=O)c2cc(COc3cc(C)c(Cl)c(C)c3)on2)nc1", "activity change, negative = inhibition": "inconclusive: -29.3%"},
      {"smiles": "CCN(C(=O)c1cnc(N2CCN(c3ncccn3)CC2)c2ccccc12)c1cccc(Cl)c1", "activity change, negative = inhibition": "inconclusive: 7.14%"},
      {"smiles": "CC(C)Oc1ccccc1/C=N/NC(=O)C1CCCC1", "activity change, negative = inhibition": "inconclusive: 0.366%"},
      {"smiles": "CCOCC(=O)Nc1ccc(S(=O)(=O)N2CCC(c3nc4ccccc4[nH]3)CC2)cc1", "activity change, negative = inhibition": "inconclusive: 22.4%"},
      {"smiles": "CC1=NCCN1CCNC(=O)Nc1ccc(C(C)(C)C)cc1", "activity change, negative = inhibition": "inactive: -1.61%"},
      {"smiles": "O=C(Nc1ccc(Cl)c(C(F)(F)F)c1)C1CCCN(S(=O)(=O)c2cccc3cccnc23)C1", "note": "(stereo unspecified)", "activity change, negative = inhibition": "inactive: -6.33%"},
      {"smiles": "Oc1oc(-c2ccco2)nc1C=Nc1cccc(Cl)c1", "activity change, negative = inhibition": "inconclusive: -25.4%"},
      {"smiles": "CCOC(=O)c1cnn(CC2CCCCC2)c1N", "activity change, negative = inhibition": "inconclusive: -0.376%"},
      {"smiles": "O=c1c(N2CCN(c3cccc(C(F)(F)F)c3)CC2)csc2ccccc12", "Potency": "inconclusive: 25.1 µM [falling, single point]"},
      {"smiles": "COc1cc2c(cc1NC(=O)Nc1ccc(C)cc1)oc1ccccc12", "activity change, negative = inhibition": "inconclusive: 32.2%"},
      {"smiles": "Cc1noc(C)c1COc1ccc(C(=O)NCc2ccccn2)cc1", "Potency": "inconclusive: 25.9 µM [falling, partial curve]"},
      {"smiles": "CSC1=NNC(c2ccc(C(C)(C)C)cc2)=NN1", "activity change, negative = inhibition": "inconclusive: 1.34%"},
      {"smiles": "CCCCCCCOC(=O)c1ccc(OC(=O)c2cccnc2)cc1", "Potency": "inconclusive: 0.184 µM [rising, full curve]"},
      {"smiles": "O=C(c1ccccc1-c1nc(-c2ccc(F)cc2)no1)N1CCCC1", "activity change, negative = inhibition": "inconclusive: 4.69%"},
      {"smiles": "COc1ccc(O)c(/C=N/NC(=O)CCC(=O)Nc2ccc(F)cc2)c1", "Potency": "inconclusive: 15.8 µM [falling, partial curve]"},
      {"smiles": "O=C(CNC(=S)N(CCCN1CCOCC1)Cc1cccs1)NC1CCCCC1", "activity change, negative = inhibition": "inactive: -6.37%"},
      {"smiles": "CCC1CCC(c2nnc(-c3ccc([N+](=O)[O-])cc3)o2)CC1", "note": "(stereo unspecified)", "activity change, negative = inhibition": "inconclusive: 14.8%"},
      {"smiles": "C=CCC[C@H](Cc1ccc(F)cc1)C(=O)OC[C@H](Cc1c[nH]c2ccccc12)NC(=O)[C@H](CC=C)CC(=O)N(CCO)Cc1ccccc1", "activity change, negative = inhibition": "inconclusive: 0.967%"},
      {"smiles": "CCOc1ccccc1NC(=O)CCSc1nc2n[nH]c(C)c2c(=N)n1-c1ccccc1Cl", "activity change, negative = inhibition": "inactive: 13.3%"},
      {"smiles": "CCOC(=O)C1(Cc2ccc(OC)cc2)CCN(C(=O)C2=CCCC2)CC1", "activity change, negative = inhibition": "inconclusive: 14.1%"},
      {"smiles": "Cc1c(Cl)cccc1NC(=O)CSc1ncnc2c1cnn2CCc1ccccc1", "activity change, negative = inhibition": "inactive: 15%"},
      {"smiles": "COc1ccc(Cl)cc1NC(=O)c1cc(-c2ccc(C)cc2O)n[nH]1", "activity change, negative = inhibition": "inconclusive: 0.94%"},
      {"smiles": "Cc1ccnc2nc(C(=O)Nc3ccc4c(c3)OCO4)nn12", "Potency": "inconclusive: 6.51 µM [falling, full curve, poor fit]"},
      {"smiles": "Cc1c(C)n(Cc2ccccc2)c2ccc(C(=O)NCCCN3CCOCC3)cc12", "activity change, negative = inhibition": "inactive: 19.5%"},
      {"smiles": "O=C(COC(=O)c1ccc2[nH]c3c(c2c1)CCCC3)NC1CCS(=O)(=O)C1", "note": "(stereo unspecified)", "activity change, negative = inhibition": "inactive: 3.06%"},
      {"smiles": "COc1ccccc1NC(=O)C(C)OC(=O)CCNS(=O)(=O)c1ccc(C)c(C)c1", "note": "(stereo unspecified)", "activity change, negative = inhibition": "inconclusive: 9.5%"},
      {"smiles": "COc1ccc(NC(=O)c2cccc(NC(=O)c3ccccc3)c2)cc1", "Potency": "inconclusive: 22.4 µM [falling, single point]"},
      {"smiles": "Cc1ccc(NNC(=O)Nc2ccc(Cl)cc2)nn1", "activity change, negative = inhibition": "inconclusive: 8.25%"},
      {"smiles": "O=C(Nc1cccc(Cl)c1)N1CCN2C(=O)c3ccccc3C12c1ccccc1", "note": "(stereo unspecified)", "activity change, negative = inhibition": "inconclusive: 15.9%"},
      {"smiles": "CCOC(=O)Cc1csc(NC(=O)c2ccc(Br)cc2)n1", "activity change, negative = inhibition": "inconclusive: -0.411%"},
      {"smiles": "CCC(C(=O)NCCN1CCN(C)CC1)n1c(C)c2cnn(-c3ccccc3)c(=O)c2c1C", "note": "(stereo unspecified)", "activity change, negative = inhibition": "inconclusive: -1.28%"},
      {"smiles": "O=C(N/N=C/c1ccc(O)c(O)c1)c1ccc(CSc2cccc3cccnc23)cc1", "Potency": "inconclusive: 7.31 µM [falling, partial curve]"},
      {"smiles": "O=C(N/N=C/c1cc2c(cc1Br)OCO2)c1c[nH]c2ccccc12", "activity change, negative = inhibition": "inconclusive: -10.6%"},
      {"smiles": "c1ccc2sc(NN=C3CCCC3)nc2c1", "Potency": "inconclusive: 14.1 µM [falling, partial curve]"},
      {"smiles": "COc1ccc(N=Nc2ccc(N)nc2N)cc1", "activity change, negative = inhibition": "inconclusive: -0.721%"},
      {"smiles": "O=C(Nc1ccc(Cl)cc1)OCc1cncs1", "activity change, negative = inhibition": "inconclusive: 7.8%"},
      {"smiles": "COc1ccccc1OCc1ccc(C(=O)N2CCOCC2)o1", "activity change, negative = inhibition": "inconclusive: -1.25%"},
      {"smiles": "CC(=O)c1c(OC(=O)c2ccccc2)c2ccccc2n1C", "Potency": "inconclusive: 0.891 µM [falling, full curve, poor fit]"},
      {"smiles": "CCSc1nnc(NC(=O)c2cccc(S(=O)(=O)N(C)c3ccc(C)cc3)c2)s1", "activity change, negative = inhibition": "inconclusive: 9.31%"},
      {"smiles": "COc1ccc(-c2coc3cc(OC4OC(CO)C(O)C(O)C4O)cc(O)c3c2=O)cc1", "note": "(stereo unspecified)", "activity change, negative = inhibition": "inconclusive: 3.93%"},
      {"smiles": "C[C@H](NC(=O)c1nc[nH]c1C(=O)NC(c1ccccc1)c1ccccc1)C(=O)OC(C)(C)C", "Potency": "inconclusive: 35.5 µM [falling, single point]"},
      {"smiles": "FC(F)(F)c1cccc(-n2cc(-c3ccccc3)[nH]c2=S)c1", "activity change, negative = inhibition": "inconclusive: 10.3%"},
      {"smiles": "C/C(=N\\Nc1ncnc2sc(C)c(C)c12)c1ccccn1", "Potency": "inconclusive: 25.1 µM [falling, single point]"},
      {"smiles": "Cc1cc(C)nc(SCC(=O)Nc2ccc3c(c2)OCO3)n1", "activity change, negative = inhibition": "inactive: -0.607%"}
    ]}
  ]
}
